From PubChem BioAssay AID2284110 (EPA ToxCast)
Only results without a clear call are listed here; the source files them as inconclusive. Rule for the calls: active = hit-call score of the fitted dose curve at least 0.9, where 1 is the maximum; inconclusive = response in the unintended direction; inactive = score below 0.9. Where the call is inconclusive, the potency comes from a doubtful curve fit.

Amino acid sequences for entries named in this document (tags omitted). A change or cut given only in a name is not applied to a line headed by its entry.
UniProt P35348: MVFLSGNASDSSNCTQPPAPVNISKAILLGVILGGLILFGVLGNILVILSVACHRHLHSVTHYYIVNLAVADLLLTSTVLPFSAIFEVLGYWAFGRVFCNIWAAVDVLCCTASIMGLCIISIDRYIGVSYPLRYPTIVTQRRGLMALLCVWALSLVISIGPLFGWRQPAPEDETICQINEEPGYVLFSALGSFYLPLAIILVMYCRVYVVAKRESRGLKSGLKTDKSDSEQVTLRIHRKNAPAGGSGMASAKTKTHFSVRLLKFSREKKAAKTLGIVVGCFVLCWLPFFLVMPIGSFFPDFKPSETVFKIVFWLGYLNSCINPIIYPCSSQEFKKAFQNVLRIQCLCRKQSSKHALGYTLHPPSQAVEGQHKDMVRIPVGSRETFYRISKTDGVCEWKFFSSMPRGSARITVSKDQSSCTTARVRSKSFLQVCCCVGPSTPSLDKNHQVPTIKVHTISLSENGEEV

Each compound was assayed against human Adrenoceptor Receptor alpha1A Antagonism, conducted at France lab site, ADRA1A (gene 148) (UniProt P35348) (assay: ERF_FR_GPCR_hADRA1A: Eurofins (ERF) G Protein-Coupled Receptor (GPCR) Radioligand Binding LeadHunter Assay for human Adrenoceptor Receptor alpha1A Antagonism, conducted at France lab site).
Method: ERF_FR_GPCR_hADRA1A is a biochemical, single-readout assay that uses extracted gene-proteins in a cell-free assay. Measurements were taken 1 hour after chemical dosing in a 96-well plate. See alpha1A Human Adrenoceptor GPCR Binding (Antagonist Radioligand) Assay, Cerep.ERF_FR_GPCR_hADRA1A is an assay component calculated from the ERF_FR_GPCR_hADRA1A assay. It is designed to measure radioligand binding using a type of binding reporter as detected by scintillation counting with radiometry technology.Data from the assay component ERF_FR_GPCR_hADRA1A was analyzed at the assay endpoint, ERF_FR_GPCR_hADRA1A, in the positive analysis fitting direction relative to DMSO as the negative control and baseline of activity. Using a type of binding reporter, loss-of-signal activity can be used to understand changes in binding as they relate to gene ADRA1A. To generalize the intended target to other relatable targets, this assay endpoint is annotated to the gpcr intended target family, where the subfamily is adrenoceptor.
Human cells are incubated for 60 minutes in room temprature, using [3H]prazosin ligand at 0.1 Kd (nM) with WB-4101 control inhibitor.Test Sample Requirements: Minimum for 1) Screen: 60 ul of 10 mM stock -OR- 1 mg (pre-weighed) for […] uM final testing. 2) Dose Response: 90 ul of 10 mM stock -OR- 1 mg (pre-weighed) for a top concentration at 10 uM.

Row | Structure (SMILES) | AC50
1 | Cn1c(=O)c2c(ncn2C)n(C)c1=O | inconclusive: 5 µM
